Some peptides are written in HELM: one residue between dots, names in brackets for other building blocks, links after the first $. Starred links: 1 amine or outer side, 2 acyl side, 3 side chain; linkers in the order of their positions; H or OH if unused. Non-standard residues stand in square brackets, D forms with d. *: point of attachment. N(1S-cyclohexylethyl)Gly = C[C@H](NCC(=O)O)C1CCCCC1; Acetyl(2-(piperazin-1-yl)) = O=C(CN1CCNCC1)*; X4 = O=C(CN1CCCN([*:1])CC1)[*:2]; Nspe = C[C@H](NCC(=O)O)c1ccccc1; X1 = O=C(CN1CCN([*:1])CC1)[*:2]; X5 = NC(=O)CN1CCN(*)CC1; X3 = O=C(CN1CCCNCC1)*

This data set can be described thus: general procedure: Fmoc solid-phase peptide synthesis; Rink amide resin (Novabiochem); Knorr Rink amide (RAM) resin for azapeptoids; bromoacetic acid / diisopropylcarbodiimide (submonomer approach). Particulars: whole synthesis, reversed-phase HPLC, analytical C18, UV-2075 (Jasco), scale of the general procedure 100 mg of resin.
As for “H-[Nspe][Nspe][Nspe][Nspe][Nspe][Nspe]-NH2 (SMILES C[C@H](NCC(=O)N(CC(=O)N(CC(=O)N(CC(=O)N(CC(=O)N(CC(N)=O)[C@@H](C)c1ccccc1)[C@@H](C)c1ccccc1)[C@@H](C)c1ccccc1)[C@@H](C)c1ccccc1)[C@@H](C)c1ccccc1)c1ccccc1)”, the “crude HPLC purity” value came out at 99%.
In the case of “H-[Nspe][Nspe][Nspe][Nspe][Nspe][Nspe]-X5 (SMILES C[C@H](NCC(=O)N(CC(=O)N(CC(=O)N(CC(=O)N(CC(=O)N(CC(=O)N1CCN(CC(N)=O)CC1)[C@@H](C)c1ccccc1)[C@@H](C)c1ccccc1)[C@@H](C)c1ccccc1)[C@@H](C)c1ccccc1)[C@@H](C)c1ccccc1)c1ccccc1)” it was 81%; in that of Npl-(Nspe)6-Npz, 70%; in that of Npz-(Npm)2-Nsch-Ncpe-Nsch-Nfpm, 70%.
Turning to Npz-Nspe-Ntrp-(Nspe)2-Nhq-Nspe, the “crude HPLC purity” value worked out at 72%.
Nspe-Ntrp-(Nspe)2-Nhq-Nspe-Npz: the “crude HPLC purity” value was found to be 80%.
Consider “PEPTIDE1{[Nhpz].[Ns1npe].[Ns1npe].[Ns1npe].[Ns1npe].[am]}$$$$V2.0”, for which the “crude HPLC purity” value is reported as 81%.
For “PEPTIDE1{[Nhpz].[Nsch].[Nsch].[Nsch].[Nsch].[Nsch].[am]}$$$$V2.0” the value was 76%; for “PEPTIDE1{[Npz].[Npz].[Npz].[Ns1npe].[Ns1npe].[Ns1npe].[Ns1npe].[am]}$$$$V2.0”, 72%.
On to “PEPTIDE1{[Npz].[Npz].[Ns1npe].[Ns1npe].[Ns1npe].[Ns1npe].[am]}$$$$V2.0”, for which the “crude HPLC purity” value is 78%.
Consider “PEPTIDE1{[Npz].[Ns1npe].[Ns1npe].[Ns1npe].[Ns1npe].[am]}$$$$V2.0”, for which the “crude HPLC purity” value was determined as 82%.
For “PEPTIDE1{[Npz].[Nsch].[Nsch].[Nsch].[Nsch].[Nsch].[am]}$$$$V2.0”, the “crude HPLC purity” value stood at 75%.
“PEPTIDE1{[Npz].[Nspe].[Nspe].[Nspe].[Nspe].[Nspe].[Nspe].[NplC].[am]}$PEPTIDE1,PEPTIDE1,1:R1-8:R3$$$V2.0”: the “crude HPLC purity” value is 40%.
“PEPTIDE1{[Ns1npe].[Ns1npe].[Ns1npe].[Ns1npe].[Npz].[am]}$$$$V2.0”: the “crude HPLC purity” value came to 80%.
Regarding “PEPTIDE1{[Ns1npe].[Ns1npe].[Ns1npe].[Ns1npe].[am]}$$$$V2.0”, the “crude HPLC purity” value is listed as 99%.
As to “X3-[Nspe][Nspe][Nspe][Nspe][Nspe][Nspe]-NH2 (SMILES C[C@@H](c1ccccc1)N(CC(N)=O)C(=O)CN(C(=O)CN(C(=O)CN(C(=O)CN(C(=O)CN(C(=O)CN1CCCNCC1)[C@@H](C)c1ccccc1)[C@@H](C)c1ccccc1)[C@@H](C)c1ccccc1)[C@@H](C)c1ccccc1)[C@@H](C)c1ccccc1)”, the “crude HPLC purity” value worked out at 85%.
Turning to “X3-[X4][Nspe][Nspe][Nspe][Nspe][Nspe][Nspe]-NH2 (SMILES C[C@@H](c1ccccc1)N(CC(N)=O)C(=O)CN(C(=O)CN(C(=O)CN(C(=O)CN(C(=O)CN(C(=O)CN1CCCN(C(=O)CN2CCCNCC2)CC1)[C@@H](C)c1ccccc1)[C@@H](C)c1ccccc1)[C@@H](C)c1ccccc1)[C@@H](C)c1ccccc1)[C@@H](C)c1ccccc1)”, the “crude HPLC purity” value came out at 82%.
Take “{Acetyl(2-(piperazin-1-yl))}-[Nspe][Nspe][Nspe][Nspe][Nspe][Nspe]-NH2 (SMILES C[C@@H](c1ccccc1)N(CC(N)=O)C(=O)CN(C(=O)CN(C(=O)CN(C(=O)CN(C(=O)CN(C(=O)CN1CCNCC1)[C@@H](C)c1ccccc1)[C@@H](C)c1ccccc1)[C@@H](C)c1ccccc1)[C@@H](C)c1ccccc1)[C@@H](C)c1ccccc1)”: the “crude HPLC purity” value was 85%.
Consider “{Acetyl(2-(piperazin-1-yl))}-[X1][N(1S-cyclohexylethyl)Gly][N(1S-cyclohexylethyl)Gly][N(1S-cyclohexylethyl)Gly][N(1S-cyclohexylethyl)Gly][N(1S-cyclohexylethyl)Gly]-NH2 (SMILES C[C@@H](C1CCCCC1)N(CC(N)=O)C(=O)CN(C(=O)CN(C(=O)CN(C(=O)CN(C(=O)CN1CCN(C(=O)CN2CCNCC2)CC1)[C@@H](C)C1CCCCC1)[C@@H](C)C1CCCCC1)[C@@H](C)C1CCCCC1)[C@@H](C)C1CCCCC1)”, for which the “crude HPLC purity” value was 72%.
As for “{Acetyl(2-(piperazin-1-yl))}-[X1][Nspe][Nspe][Nspe][Nspe][Nspe][Nspe]-NH2 (SMILES C[C@@H](c1ccccc1)N(CC(N)=O)C(=O)CN(C(=O)CN(C(=O)CN(C(=O)CN(C(=O)CN(C(=O)CN1CCN(C(=O)CN2CCNCC2)CC1)[C@@H](C)c1ccccc1)[C@@H](C)c1ccccc1)[C@@H](C)c1ccccc1)[C@@H](C)c1ccccc1)[C@@H](C)c1ccccc1)”, the “crude HPLC purity” value turned out to be 82%.
Consider “{Acetyl(2-(piperazin-1-yl))}-[X1][X1][N(1S-cyclohexylethyl)Gly][N(1S-cyclohexylethyl)Gly][N(1S-cyclohexylethyl)Gly][N(1S-cyclohexylethyl)Gly][N(1S-cyclohexylethyl)Gly]-NH2 (SMILES C[C@@H](C1CCCCC1)N(CC(N)=O)C(=O)CN(C(=O)CN(C(=O)CN(C(=O)CN(C(=O)CN1CCN(C(=O)CN2CCN(C(=O)CN3CCNCC3)CC2)CC1)[C@@H](C)C1CCCCC1)[C@@H](C)C1CCCCC1)[C@@H](C)C1CCCCC1)[C@@H](C)C1CCCCC1)”, for which the “crude HPLC purity” value worked out at 67%.

These data come from patent publication US20200055897A1 (Technion Research & Development Foundation Limited, priority 2017, published 2020).
